# Screening data, single-dose tests

Data taken from ChEMBL document CHEMBL3988442, “University of Dundee, Small-Polar-MMV Screening Library” (2021).

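Whole-cell growth test on Mycobacterium tuberculosis, read after 3 days in glucose-containing 7H9 medium; the read-out is not stated. Compounds at 50 µM. Higher reads as more growth inhibition (inferred: compounds with an IC50 in retests scored well above the rest). Size under these conditions: about 69,000 compounds, about 760 of them at 50% or above in at least one test.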

The filed quantity is “Percent Effect” (%).
The record does not define 0% and 100%; most values in the screen are far below 50% and negative numbers occur (in some assays of this library far below -100).
Compounds were drawn at random from those tested, without regard to their results.
Two or more numbers in one place are separate tests of the same structure; such repeats can differ widely.

SMILES	percent effect
CC(=O)c1ccc(OCC(=O)NS(=O)(=O)c2cccnc2)cc1	-17.5%
O=C(O)C(F)(F)F.O=C(O)C(F)(F)F.O=C(O)C(F)(F)F.c1cncc(CN2CCC3(COCCN(C4CCOCC4)C3)C2)c1 (centres unmarked)	-17.01%
[H][C@@]12CCN(CC3CCOCC3)C[C@@]1([H])O[C@@H](C)C2	-0.1445% & -4.441%
CCN(C)c1ncnc2c1CCN(Cc1ccsc1)CC2.O=C(O)C(F)(F)F.O=C(O)C(F)(F)F	12.86%
COc1ccccc1CN(CC1CCCO1)C(=O)c1scnc1C (centres unmarked)	2.229% & 4.349%
Cc1cccc(-c2noc(CN3CC(n4cccn4)C3)n2)c1	25.54%
CCN(CC(=O)NC)C(=O)Cc1nc(-c2ccco2)oc1C	32.08%
CCc1nc(CN(C)C2CCN(CCc3cccs3)C2)no1 (centres unmarked)	-17.64%
Cc1ocnc1C(=O)N1CCCC1c1ccc(C(=O)N2CCSCC2)s1 (centres unmarked)	38.4% & 4.315%
CC(C)c1nnc(NCc2cc3n(n2)CCNC3)s1	3.609%
COc1cccc(S(=O)(=O)Cc2cc(C)on2)c1	-6.891%
COC1CCCN(C(=O)c2sc(CC(C)C)nc2C)C1 (centres unmarked)	1.938%
O=C(NCc1cccs1)c1nc2c(o1)CN(c1ncccn1)C2	-17.66% & -7.945%
Cn1cnc2c1CCN(CCCOc1ccc(S(C)(=O)=O)cc1)C2	-7.663%
CC(CN1CCC(CCO)CC1)n1cnc2ccccc21 (centres unmarked)	14.61% & -3.356%
CC1c2cc(F)ccc2CCN1CCCS(=O)(=O)C(C)C (centres unmarked)	-4.141%
CCN(C(=O)c1cccc2c1OCO2)c1ccccc1	-25.63% & -0.6531%
[H][C@@]12CCN(S(C)(=O)=O)C[C@@]1([H])O[C@H](C(=O)N1CCOCC1)C2	-14.73%
CCCNC(=O)C1(Cc2cc(-c3ccccc3)no2)CCN(C(C)=O)C1 (centres unmarked)	9.502%
CCC(CC)C(=O)N1CCOC2(COCCN(CC(=O)NC)C2)C1.O=C(O)C(F)(F)F (centres unmarked)	-13.21%
N#Cc1cc(NS(=O)(=O)c2cc(C(=O)O)cc(Cl)c2Cl)ccc1F	-2.365%
CCc1noc(C)c1C(=O)N1CCCC1c1c(C)nn(C)c1OC (centres unmarked)	-2.727%
Cn1nccc1C(=O)N1CCOC(Cc2ccc(Cl)cc2)C1 (centres unmarked)	6.068%
Cc1cc(NC(=O)N2CCCC2CN2CCOCC2)nn1C (centres unmarked)	5.685%
COCCN(Cc1ccc(C)o1)C(=O)Nc1nnc(C(F)F)s1	7.767% & -12.19%
[H][C@@]12CS(=O)(=O)C[C@]1([H])N(Cc1cc(F)cc(Cl)c1)CCN2CCO	-12.64%
CCOC(=O)C1CCCN(c2ccc(-c3nc(C)no3)cn2)C1 (centres unmarked)	23.62%
CC1(C(=O)N2CCOCC2)CN(Cc2cccnc2)CCO1 (centres unmarked)	8.206%
COCCOc1ncccc1NCc1nc2ccccc2n1C	1.918%
CCOc1ccc(CC(=O)N2CCN(c3nccn3CC)CC2)cc1.Cl	26.34%
Cc1ccc(CN(C)Cc2nc3c(cnn3C)c(=O)[nH]2)c(C)c1	-34.15%
Cc1cccc(N(C)Cc2nc3c(cnn3C)c(=O)[nH]2)c1C	1.464% & -19.55%
Cc1cccnc1CN(C)C(C(=O)O)c1ccc(-n2cccn2)cc1 (centres unmarked)	82.27%
CCCc1noc(CCC(=O)N2CCCC2c2ccncc2)n1 (centres unmarked)	2.72%
CN(C)C(=O)CN1CCC2(CC1)CC(=O)c1ccc3ccccc3c1O2	0.562%
CCNC(=O)[C@@H]1C[C@@H](NC(=O)Cc2ccncc2)CN1Cc1ccsc1	-10.48%
Cc1noc(C)c1C1CCCN1C(=O)CN1C(=O)OC(C)(C)C1=O (centres unmarked)	7.117%
Cc1nc[nH]c1CN1CCCC(CNC(=O)c2ccncn2)C1 (centres unmarked)	-25.84%
Cn1ccnc1CN1CCC2(CC1)Cc1ccccc1CNC2=O.O=C(O)C(F)(F)F	-3.971%
C1CCC(c2nc3c(c(N4CCN5CCCC5C4)n2)CCNCC3)C1 (centres unmarked)	26.79%
Cc1ccc(Cl)cc1N1CCN(CC(=O)NCc2ccco2)CC1	25.46%
Cc1cc2nc(C(C)C)cc(N(C)CC3CCCN(CCO)C3)n2n1 (centres unmarked)	12.76% & 5.882%
O=C(NCCN1CCCC1)Nc1cc(C(=O)N2CCOCC2)ccc1Cl	-2.4%
Cc1noc(Cl)c1CC(=O)N1CCCC(n2cccn2)C1 (centres unmarked)	-9.762%
Br.Cc1ccc(C(=O)CN(C2=NCCCCC2)c2ccccc2)cc1	53.14%
N#Cc1ccnc(N2CCC(NCCN3CCCC3)CC2)c1	-3.74% & -5.7%
CCOCC1CN(C(=O)c2ccco2)Cc2nn(C)cc21 (centres unmarked)	1.185% & 16.4%
COCCN(CCOC)c1ncccc1I	-3.969%
CCOCC1CCCN(C(=O)NCc2ccc(-c3ccn[nH]3)cc2)C1 (centres unmarked)	-40.67%
CCN(Cc1ccoc1)C(=O)c1ccncc1O	4.407%
CC(=O)N1CCOC2(CCN(C(=O)C3CC3)CC2)C1	14.26%
O=C(O)C(F)(F)F.O=C(O)C(F)(F)F.[H][C@@]12CN(Cc3ccco3)C[C@]1([H])[C@H](OC)CCN2Cc1c(C)noc1C	8.971%
CN(CC(N)=O)C(=O)c1cn(-c2ccc(Br)cc2)cn1	-7.084%
CC(Cn1cccn1)NC(=O)NCCc1ccsc1 (centres unmarked)	-36.23% & -2.727%
O=C(O)c1nnn(Cc2ccc(F)cc2)c1-c1cccnc1	-1.948%
Cc1cc(C(N)=O)c2c(Br)cccc2n1	-31.01%
Cn1cc(-c2cnc(N3CCOCC3)nc2)cc1C(=O)NCCC#N.O=C(O)C(F)(F)F	-1.022%
CCCc1nnc(N(C)CC2CCN(CC(C)C)CC2)o1	7.478%
C[S+]([O-])c1nncn1CC(=O)c1ccc(OC(F)F)cc1 (centres unmarked)	5.842% & -36.96%
COCCN1CCC2(CC1)CC(NCc1ccc(C)s1)c1ccccc12.O=C(O)C(F)(F)F.O=C(O)C(F)(F)F (centres unmarked)	-19.55%
CCn1cnnc1C1CCN(C(=O)c2cc3c(s2)CCCC3)CC1	0.564% & -32.06%
COc1ccc(CN2CCCC(n3cccn3)C2)c(Cl)c1OC (centres unmarked)	11.05% & -1.529%
Cc1csc(C(Cc2ccsc2)NC(=O)C2CCN(S(C)(=O)=O)CC2)n1 (centres unmarked)	25.09%

Once more, the final 6:

SMILES	percent effect
CCCc1nnc(N(C)CC2CCN(CC(C)C)CC2)o1	7.478%
C[S+]([O-])c1nncn1CC(=O)c1ccc(OC(F)F)cc1 (centres unmarked)	5.842% & -36.96%
COCCN1CCC2(CC1)CC(NCc1ccc(C)s1)c1ccccc12.O=C(O)C(F)(F)F.O=C(O)C(F)(F)F (centres unmarked)	-19.55%
CCn1cnnc1C1CCN(C(=O)c2cc3c(s2)CCCC3)CC1	0.564% & -32.06%
COc1ccc(CN2CCCC(n3cccn3)C2)c(Cl)c1OC (centres unmarked)	11.05% & -1.529%
Cc1csc(C(Cc2ccsc2)NC(=O)C2CCN(S(C)(=O)=O)CC2)n1 (centres unmarked)	25.09%